# Some of the results follow.
# B1: AT3G44510(29) (Arabidopsis thaliana), F4J341 (protein)
# chain: MEEHLQGRIKLHDGRYLAYKERGVPKDDAKFTIVLVHGFGSSKDMNFNVSQELVNEIGIYFVLYDRAGYGESDPNPKRSLKSEAYDVQELADGLEIGSRFYLIGISMGSYTVWSCLKHIPQRLAGVAMVAPVVNFRWPSIPKSLMPKDYRREVAKWSVWIANYFPGLLQWLVTQNMFSTTSMLEKNPVYFNDQDIEVLKHIKGFPMLTKEKLRERGVFGTLRSDFLVAFGDWDFDPADLPDPSLSGPEKGSSSVHIWQGYEDKVMPFQLQRCLCRKLPWIRYHEVPKGGHLIVHYDGICDAILKSLLLGEDLPMYKPKAVITEPA
# How the values were obtained:
# Assay in all cases: glycan array binding signal (z-score within array); higher = stronger binding
# Details in all cases: glycan notation: IUPAC condensed, linker removed
# [1] = biological target: GalNAc(a1-3)GalNAc(b1-3)Gal(a1-4)Gal(b1-4)GlcNAc
# How it was run: (§1)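 Glycan array binding is given as a within-array Z-score, which can be read as non-binding when negative. The arrays, 3228 of them, came from the Consortium for Functional Glycomics database and were retained only where the protein sequence was available. Z-scores were averaged across arrays of the same protein sequence at different concentrations or buffers and across linkers.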
# GalNAc(b1-3)Gal = biological target: GalNAc(b1-3)Gal
# How it was run: as §1
# [2] = biological target: GalNAc(b1-3)Gal(a1-4)Gal(b1-4)GlcNAc
# How it was run: as §1
# [3] = biological target: GalNAc(b1-3)Gal(a1-4)Gal(b1-4)GlcNAc(b1-3)Gal(b1-4)Glc
# How it was run: as §1
# [4] = biological target: GalNAc(b1-3)Gal(a1-6)Gal(b1-4)Glc
# How it was run: as §1
# GalNAc(b1-3)GalNAc = biological target: GalNAc(b1-3)GalNAc
# How it was run: as §1
# GalNAc(b1-3)GlcNAc = biological target: GalNAc(b1-3)GlcNAc
# How it was run: as §1
# GalNAc(b1-4)Gal(b1-4)Glc = biological target: GalNAc(b1-4)Gal(b1-4)Glc
# How it was run: as §1
# GalNAc(b1-4)GlcNAc = biological target: GalNAc(b1-4)GlcNAc
# How it was run: as §1
# [5] = biological target: GalNAc(b1-4)GlcNAc(b1-2)Man
# How it was run: as §1
# [6] = biological target: GalNAc(b1-4)GlcNAc(b1-2)Man(a1-3)[GalNAc(b1-4)GlcNAc(b1-2)Man(a1-6)]Man(b1-4)GlcNAc(b1-4)GlcNAc
# How it was run: as §1
# [7] = biological target: GalNAc(b1-4)GlcNAc(b1-3)GalNAc(b1-4)GlcNAc
# How it was run: as §1
# GalNAc(b1-4)GlcNAc6S = biological target: GalNAc(b1-4)GlcNAc6S
# How it was run: as §1
# GalNAc(b1-6)GalNAc = biological target: GalNAc(b1-6)GalNAc
# How it was run: as §1
# GalNAc3S(b1-4)GlcNAc = biological target: GalNAc3S(b1-4)GlcNAc
# How it was run: as §1
# GalNAc3S(b1-4)GlcNAc3S = biological target: GalNAc3S(b1-4)GlcNAc3S
# How it was run: as §1
# [8] = biological target: GalNAc3S(b1-4)[Fuc(a1-3)]GlcNAc
# How it was run: as §1
# GalNAc4S6S(b1-4)GlcNAc = biological target: GalNAc4S6S(b1-4)GlcNAc
# How it was run: as §1
# GalNAc6S(b1-4)GlcNAc = biological target: GalNAc6S(b1-4)GlcNAc
# How it was run: as §1
# Glc(a1-4)Glc = biological target: Glc(a1-4)Glc
# How it was run: as §1
# [9] = biological target: Glc(a1-4)Glc(a1-4)Glc(a1-4)Glc
# How it was run: as §1
# Glc(a1-6)Glc(a1-6)Glc = biological target: Glc(a1-6)Glc(a1-6)Glc
# How it was run: as §1
# [10] = biological target: Glc(a1-6)Glc(a1-6)Glc(a1-6)Glc
# How it was run: as §1
# Glc(b1-4)Glc = biological target: Glc(b1-4)Glc
# How it was run: as §1
# Glc(b1-6)Glc = biological target: Glc(b1-6)Glc
# How it was run: as §1
# GlcA(b1-3)Gal = biological target: GlcA(b1-3)Gal
# How it was run: as §1
# GlcA(b1-3)GlcNAc = biological target: GlcA(b1-3)GlcNAc
# How it was run: as §1
# GlcA(b1-6)Gal = biological target: GlcA(b1-6)Gal
# How it was run: as §1
# [11] = biological target: GlcA3S(b1-3)Gal(b1-4)GlcNAc(b1-2)Man
# How it was run: as §1
# [12] = biological target: GlcA3S(b1-3)Gal(b1-4)GlcNAc(b1-3)Gal(b1-4)Glc
# How it was run: as §1
# [13] = biological target: GlcNAc(a1-3)Gal(b1-4)GlcNAc
# How it was run: as §1
# [14] = biological target: GlcNAc(a1-4)Gal(b1-3)GlcNAc
# How it was run: as §1
# [15] = biological target: GlcNAc(a1-4)Gal(b1-4)GalNAc
# How it was run: as §1
# [16] = biological target: GlcNAc(a1-4)Gal(b1-4)GlcNAc
# How it was run: as §1
# [17] = biological target: GlcNAc(a1-4)Gal(b1-4)GlcNAc(b1-3)Gal(b1-4)Glc
# How it was run: as §1
# [18] = biological target: GlcNAc(a1-4)Gal(b1-4)GlcNAc(b1-3)Gal(b1-4)GlcNAc
# How it was run: as §1
# [19] = biological target: GlcNAc(a1-4)Gal(b1-4)GlcNAc(b1-3)Gal(b1-4)GlcNAc(b1-3)Gal(b1-4)GlcNAc
# How it was run: as §1
# [20] = biological target: GlcNAc(a1-4)Gal(b1-4)GlcNAc(b1-3)Gal(b1-4)[Fuc(a1-3)]GlcNAc(b1-3)Gal(b1-4)[Fuc(a1-3)]GlcNAc
# How it was run: as §1
binder,measurement,setting,value
B1,glycan array binding signal (z-score),[1],-0.526
same,glycan array binding signal (z-score),GalNAc(b1-3)Gal,-0.215
same,glycan array binding signal (z-score),[2],3.41
same,glycan array binding signal (z-score),[3],-0.29
same,glycan array binding signal (z-score),[4],-0.353
same,glycan array binding signal (z-score),GalNAc(b1-3)GalNAc,0.223
same,glycan array binding signal (z-score),GalNAc(b1-3)GlcNAc,-0.421
same,glycan array binding signal (z-score),GalNAc(b1-4)Gal(b1-4)Glc,-0.819
same,glycan array binding signal (z-score),GalNAc(b1-4)GlcNAc,9.27
same,glycan array binding signal (z-score),[5],-0.653
same,glycan array binding signal (z-score),[6],0.424
same,glycan array binding signal (z-score),[7],0.405
same,glycan array binding signal (z-score),GalNAc(b1-4)GlcNAc6S,0.491
same,glycan array binding signal (z-score),GalNAc(b1-6)GalNAc,-0.625
same,glycan array binding signal (z-score),GalNAc3S(b1-4)GlcNAc,0.659
same,glycan array binding signal (z-score),GalNAc3S(b1-4)GlcNAc3S,-0.871
same,glycan array binding signal (z-score),[8],-0.126
same,glycan array binding signal (z-score),GalNAc4S6S(b1-4)GlcNAc,-0.488
same,glycan array binding signal (z-score),GalNAc6S(b1-4)GlcNAc,-0.081
same,glycan array binding signal (z-score),Glc(a1-4)Glc,0.031
same,glycan array binding signal (z-score),[9],-0.179
same,glycan array binding signal (z-score),Glc(a1-6)Glc(a1-6)Glc,0.706
same,glycan array binding signal (z-score),[10],-0.082
same,glycan array binding signal (z-score),Glc(b1-4)Glc,-0.773
same,glycan array binding signal (z-score),Glc(b1-6)Glc,-0.74
same,glycan array binding signal (z-score),GlcA(b1-3)Gal,1.18
same,glycan array binding signal (z-score),GlcA(b1-3)GlcNAc,-0.45
same,glycan array binding signal (z-score),GlcA(b1-6)Gal,0.079
same,glycan array binding signal (z-score),[11],-0.477
same,glycan array binding signal (z-score),[12],-0.015
same,glycan array binding signal (z-score),[13],-0.516
same,glycan array binding signal (z-score),[14],0.585
same,glycan array binding signal (z-score),[15],0.233
same,glycan array binding signal (z-score),[16],0.318
same,glycan array binding signal (z-score),[17],0.232
same,glycan array binding signal (z-score),[18],-0.817
same,glycan array binding signal (z-score),[19],-0.072
same,glycan array binding signal (z-score),[20],1.31

# Three entries picked at random from the list so far:
binder,measurement,setting,value
B1,glycan array binding signal (z-score),Glc(b1-6)Glc,-0.74
same,glycan array binding signal (z-score),[20],1.31
same,glycan array binding signal (z-score),[2],3.41

# Source: the supplement of paper PMC8728848
